Test results taken from patent US20260224701A1.
No constants are given. Whether binding was seen depends on the method and setting. Some binding calls cover weakened binding; strength is not graded here.

How the values were obtained:
[1] = biological target: Porcine 4Ig-B7-H3 extracellular domain (porcine); assay: biolayer interferometry (Octet), antibody captured on the probe
[2] = biological target: T1, human B7-H3 on HeLa tumor cells (human) (UniProt Q5ZPR3); assay: fluorescence microscopy of live HeLa cells, AlexaFluor594-conjugated antibody
T1 sequence (looked up): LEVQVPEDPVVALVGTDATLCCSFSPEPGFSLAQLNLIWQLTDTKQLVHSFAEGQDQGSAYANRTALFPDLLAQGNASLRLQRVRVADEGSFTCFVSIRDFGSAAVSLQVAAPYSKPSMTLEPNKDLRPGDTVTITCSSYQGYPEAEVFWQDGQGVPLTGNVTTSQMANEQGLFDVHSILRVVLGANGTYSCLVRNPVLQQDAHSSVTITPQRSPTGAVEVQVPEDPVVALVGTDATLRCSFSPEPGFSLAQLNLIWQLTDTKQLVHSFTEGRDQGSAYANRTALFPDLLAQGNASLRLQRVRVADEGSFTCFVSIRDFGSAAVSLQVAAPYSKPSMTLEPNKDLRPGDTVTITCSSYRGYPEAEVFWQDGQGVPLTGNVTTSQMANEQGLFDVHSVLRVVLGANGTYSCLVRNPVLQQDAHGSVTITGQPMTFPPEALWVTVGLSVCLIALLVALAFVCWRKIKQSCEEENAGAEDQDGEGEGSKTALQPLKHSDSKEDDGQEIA

binding [1]: binds
binding [2]: binds
B1: MIL33B-H3-hIgG1 (antibody, V domains shown)
VH: QVQLVQSGAEVKKPGASVKVSCKASGYTFTSYVMHWVRQAPGQRLEWMGYINSYSDGTKYNEKFKGRVTITRDTSASTAYMELSSLRSEDTAVYYCARWGGLGNGAMDYWGQGTLVTVSS
VL: EIVLTQSPATLSLSPGERATLSCSVSSSVNYMHWYQQKPGQAPRRLIYDTSKLASGIPARFSGSGSGTDYTLTISSLEPEDFAVYYCQQWTSNPLTFGQGTKLEIK
